# Data from US10745408B2, “Biologically active taxane analogs and methods of treatment by oral administration” (Tapestry Pharmaceuticals, Inc., priority 2007, dated 2020).
# For at least one compound, name, drawing or mass did not settle the structure.
# Tested on: U251 human CNS tumor cells (glioblastoma)
# Conditions: monotherapy or combination as dosed in the study
# From the text: Tumor Model: Each animal was implanted with one million U251 human CNS tumor cells from an in vitro cell line by ic injection with a 25 gauge needle. The day of tumor implantation (May 24, 2006) was designated as day 0. A sufficient number of mice were implanted so that animals with body weights in a range as narrow as possible were selected for the trial on the day of treatment initiation (day 1 after tumor implantation). Animals were randomly assigned to the treatment groups and individually identified by earmark codes.
# A portion of this solution was then diluted with the complete vehicle to achieve the lower dosing concentration of 1.2 mg/mL. […] Temozolomide (Temodar, Schering Corporation) was prepared on each day of injection in Klucel+tween 80 at a concentration of 4 mg/mL. Temozolomide was administered within 5 minutes of formulation on the basis of exact body weight using a volume of 0.2 mL/10 g of body weight.
# Data Collection: Animal health surveillance was conducted and mortality data were collected daily. The animals were weighed twice weekly starting with the first day of treatment. […]
# Parameters Evaluated: Number of 100-day survivors, median day of death, and the increase in lifespan based on median day of death and expressed as a percentage (% ILS), median survival time and the % ILS based on median survival time.
compound,measurement,value
"Cn1nnc2c(C(N)=O)ncn2c1=O [temozolomide, Temozolomide]",effect against the U251 human CNS tumor cells (in words),excellent effect
